Experimental data as given in PubChem BioAssay AID540276 (National Center for Advancing Translational Sciences (NCATS), 2011).
Out of some 300,000 compounds screened, about 5,400 (1.8%) were called active. This list was built around the results that the source calls inconclusive (neither active nor inactive); the mix of calls is not that of the screen. Calls come from the whole dose curve; tested in HEK293 cells. Where the call is inconclusive, the potency comes from a doubtful curve fit.

Assay: qHTS for inhibitors of binding or entry into cells for Marburg Virus
Conditions: Marburg virus pseudotyped entry inhibition, cell reporter; activity change, negative = inhibition: at 37.8 µM (top of the series) unless noted
% is set by controls: 0 for no effect and ±100 for the full control effect; potency is the fitted concentration of half-maximal effect.

Structure (SMILES) | activity change, negative = inhibition | Potency
CCOC(=O)N1CCC(Nc2nc3ccccc3n3nnnc23)CC1 | inactive: -5.7% | –
C=CC[N+]1(CC#Cc2ccccc2)CCCC1 | – | inconclusive: 35.5 µM [activator, single point]
COc1ccc2oc(=O)c(-c3nc4ccccc4o3)cc2c1 | – | inconclusive: 29.1 µM [activator, single point]
COc1cc2nc(N(CCCN(C)C)C(=O)c3ccc(S(=O)(=O)N4CCc5ccccc5C4)cc3)sc2cc1OC | – | inconclusive: 35.5 µM [inhibitor, single point]
Cc1cc(C)cc(NC(=O)COC(=O)COc2ccc(N(C)S(=O)(=O)c3cccs3)cc2)c1 | inactive: -13.8% | –
CCCCN(C)S(=O)(=O)c1c(C)[nH]c(=O)[nH]c1=O | – | inconclusive: 0.411 µM [activator, full curve, poor fit]
CCOC(=O)c1sc(NC(=O)CSc2nc3c(c(=O)n2-c2ccc(F)cc2)SCC3)c(C(=O)OCC)c1C | inactive: -0.126% | –
CCOc1ccc(NC(=S)Nc2cccc3ccccc23)cc1 | inactive: 0.899% [at 46.1 µM] | –
Cc1ccc(NC(=O)CSc2n[nH]c(-c3ccco3)n2)c(C)c1 | – | inconclusive: 6.31 µM [inhibitor, single point]
O=C(/C=C/c1ccc(-c2ccccc2[N+](=O)[O-])o1)c1ccc(F)cc1 | inactive: -4.53% | –
COc1cccc(CN(C)C(=O)/C=C/c2ccc(S(=O)(=O)N3CCCCCC3)cc2)c1 | – | inconclusive: 35.5 µM [inhibitor, single point]
O=S(=O)(c1ccccc1)N1CCC2(CC1)OCCN2S(=O)(=O)c1cccs1 | – | inconclusive: 5.62 µM [inhibitor, single point]
Cc1cc(C2=NNC(=NCCc3ccccc3)SC2)c(C)n1CC1CCCO1 (stereo unspecified) | – | inconclusive: 35.5 µM [inhibitor, single point]
O=C(CCCCCCCCN1C(=O)c2ccccc2C1=O)N1CCOCC1 | – | inconclusive: 6.31 µM [inhibitor, single point]
Cc1ccc(CSc2ncccc2C(=O)O)cc1 | – | inconclusive: 0.103 µM [inhibitor, full curve, poor fit]
Cc1ccc(NC(=O)c2ccccc2SCC(=O)N2CCCC2)cc1S(=O)(=O)N(C)C | – | inconclusive: 1.26 µM [inhibitor, single point]
Cc1ccc(C(C)C)c(OCC(=O)Nc2ccc(N3CCOCC3)cc2N2CCOCC2)c1 | – | inconclusive: 35.5 µM [inhibitor, single point]
O=C(NCc1ccc(F)cc1)C1CCN(S(=O)(=O)c2ccc3c(c2)OCCCO3)CC1 | – | inconclusive: 8.91 µM [activator, partial curve]
O=C(c1ccc2c(=O)n3c(nc2c1)CCCCC3)N1CCN(C(c2ccccc2)c2ccccc2)CC1 | – | inconclusive: 25.9 µM [inhibitor, single point]
Cc1ccc([N+](=O)[O-])cc1NC(=S)NC(=O)c1ccco1 | inactive: 2.76% | –
CCCOc1c(Br)cc(C(=O)OCC(=O)NC2CC2)cc1OC | inactive: 5.02% | –
CC(=O)N1CCN(C(=O)c2ccc(-c3cccc(C(F)(F)F)c3)o2)CC1 | inactive: 21.3% | –

Structure (SMILES) | activity change, negative = inhibition | Potency
CCC(=O)N1CCc2cc(S(=O)(=O)CCC(=O)N(C)c3ccc(OC)cc3)ccc21 | – | inactive
NS(=O)(=O)c1ccc(CCNc2ccnc3cc(Cl)ccc23)cc1 | – | inconclusive: 7.94 µM [inhibitor, partial curve, poor fit]
COc1ccc2[nH]c(=O)c(CN(Cc3ccccc3OC)Cc3nnnn3CC3CCCO3)cc2c1 (stereo unspecified) | inactive: -22.2% | –
Fc1ccc(C2=NC(c3cccc(C(F)(F)F)c3)=Nc3ccccc3N2)cc1 | – | inconclusive: 7.08 µM [inhibitor, partial curve, poor fit]
Clc1cccc(Cl)c1COn1nnc2ccccc21 | inactive: 7.8% | –
COc1ccc(NC(=O)CCNC(=O)c2ccco2)c(OC)c1 | inactive: 1.97% [at 46.1 µM] | –
COc1ccc(NC(=O)CN2C(=O)NC(C)(c3ccc(C)cc3)C2=O)c([N+](=O)[O-])c1 (stereo unspecified) | – | inconclusive: 35.5 µM [inhibitor, single point]
NC(=S)NN=C1c2cc(OCCN3CCOCC3)ccc2-c2ccc(OCCN3CCOCC3)cc21 | – | inconclusive: 7.08 µM [inhibitor, partial curve, poor fit]
CN(c1ccc(C(=O)O)cc1)S(=O)(=O)c1ccc(Cl)cc1 | inactive: -5.23% | –
Cc1ccsc1C1Nc2ccccc2-c2nc3ccccc3n21 (stereo unspecified) | – | inconclusive: 8.91 µM [inhibitor, partial curve, poor fit]
CC(NCC(O)c1ccc([N+](=O)[O-])cc1)C12CC3CC(CC(C3)C1)C2 (stereo unspecified) | – | inconclusive: 5.62 µM [inhibitor, partial curve, poor fit]
COc1ccc(-c2cc(C(F)F)n3ncc(C(=O)N4CCc5ccccc5C4)c3n2)cc1 | – | inconclusive: 35.5 µM [inhibitor, single point]
Cc1ccc(NC(=O)C2C3CC4OC(=O)C2C4C3)cc1Cl (stereo unspecified) | – | inconclusive: 35.5 µM [activator, single point]
Cc1ccc(Cl)cc1NC(=O)C1CCCN(S(=O)(=O)c2c(C)noc2/C=C/N(C)C)C1 (stereo unspecified) | inactive: -3.71% [at 46.1 µM] | –
CC1(C)Oc2ccc(NC(=O)C3COc4ccccc4O3)cc2O1 (stereo unspecified) | – | inconclusive: 29.1 µM [inhibitor, single point]
CC1CCN(c2ccccc2NC(=O)c2ccc(C#N)cc2F)CC1 | inactive: -0.966% [at 46.1 µM] | –
C/C(=N\NC(=O)c1cccc(N/N=C(\C)c2ccncc2)c1)c1ccncc1 | – | inconclusive: 9.2 µM [inhibitor, partial curve, poor fit]
COc1cc([C@H]2c3[nH]c4ccccc4c3C[C@H]3C(=O)N4[C@@H](c5cc(OC)c(OC)c(OC)c5)c5[nH]c6ccccc6c5C[C@H]4C(=O)N23)cc(OC)c1OC | – | inconclusive: 29.1 µM [inhibitor, single point]
COCCNCc1ccccc1 | inactive: 12.3% | –
Cc1ccccc1OCCn1cc(C=O)c2ccccc21 | – | inconclusive: 35.5 µM [inhibitor, single point]
Cc1ccc(NC(=O)Cn2nnc3ccccc32)cc1 | inactive: 12.9% [at 46.1 µM] | –
O=[N+]([O-])c1ccccc1S(=O)(=O)N1CCN(Cc2cc3c(cc2O)OCO3)CC1 | inactive: 2.11% [at 46.1 µM] | –

Structure (SMILES) | activity change, negative = inhibition | Potency
Cc1cc(NS(=O)(=O)c2ccc(NC(=O)N[C@H](C(=O)O)C(C)C)cc2)no1 | – | inconclusive: 0.631 µM [activator, full curve, poor fit]
COCCNC(=O)c1ccccc1NC(=O)c1ccc(Cl)c(S(=O)(=O)Nc2ccc(C)cc2C)c1 | – | inconclusive: 9.2 µM [inhibitor, partial curve, poor fit]
COC(=O)c1[nH]c2ccccc2c1NC(=O)c1ccccc1[N+](=O)[O-] | – | inconclusive: 0.731 µM [activator, full curve, poor fit]
N=c1c2c(-c3ccccc3)c(-c3ccccc3)oc2ncn1Cc1ccco1 | – | inconclusive: 14.6 µM [inhibitor, partial curve, poor fit]
COCC(=O)n1nc(NCc2ccc(OC)cc2)nc1NCc1ccc(OC)cc1 | – | inconclusive: 6.31 µM [activator, single point]
COc1c(Cl)cc(Cl)cc1C(=O)Nc1ccc(NC(=O)c2cccs2)cc1 | – | inconclusive: 16.4 µM [inhibitor, partial curve, poor fit]
Cc1ccc(C(=O)N2CCN(c3ccc(N4CCOCC4)nn3)CC2)cc1 | – | inconclusive: 11.2 µM [activator, partial curve]
COc1ccccc1-c1cc(C(=O)N2CCOCC2)no1 | – | inconclusive: 0.891 µM [activator, full curve, poor fit]
CNc1nc(Cl)nc(NC(C)(C)C)n1 | inactive: 18% | –
Nc1nonc1-n1nnc(C(=O)N/N=C/c2cc(Br)cs2)c1-c1ccccc1 | – | active: 5.62 µM
O=[N+]([O-])c1ccc2c(c1)c(-c1ccccc1)nc1nncn12 | – | inconclusive: 1.12 µM [inhibitor, full curve, poor fit]
CCCC(C(=O)NC1CCCC1)N(Cc1ccc(OC)cc1)C(=O)c1snc(C(N)=O)c1N (stereo unspecified) | – | inconclusive: 35.5 µM [inhibitor, single point]
O=C(NCCc1ccccc1)c1cc(-c2ccccc2)nc2n[nH]c(-c3ccccc3)c12 | inactive: 15.1% [at 46.1 µM] | –
Cc1ccc(NC(=O)CCl)c(C)c1 | – | inconclusive: 22.4 µM [inhibitor, single point]
O=C(NCC1CCCCC1)c1cc2ccccc2cc1O | – | inconclusive: 35.5 µM [inhibitor, single point]
O=C(Nc1ccc(S(=O)(=O)Nc2ncccn2)cc1)c1cnc(Cl)c(Cl)c1 | – | inconclusive: 0.708 µM [inhibitor, single point]
Cc1ccc(CN2CC(C(=O)Nc3ccc(F)c([N+](=O)[O-])c3)CC2=O)cc1 (stereo unspecified) | – | inconclusive: 29.1 µM [inhibitor, single point]
CC(=O)c1cnc2cc(-c3ccc(C)cc3)nn2c1C | inactive: 16.5% | –
COC(=O)C(C)N1C(=O)S/C(=C/c2cc(C)n(C(C)C)c2C)C1=O (stereo unspecified) | – | inconclusive: 23.1 µM [inhibitor, single point]
O=C(Nc1cc(S(=O)(=O)Nc2ccc(Cl)cc2)ccc1N1CCCCC1)c1ccc(F)cc1Cl | – | inconclusive: 10 µM [inhibitor, partial curve, poor fit]
CC1CN(C(=O)COC(=O)/C=C/c2cccc([N+](=O)[O-])c2)CC(C)O1 (stereo unspecified) | – | inconclusive: 3.98 µM [inhibitor, partial curve, poor fit]
O=C(CSc1nc(-c2ccco2)cc(C(F)(F)F)n1)NCC1CCCO1 (stereo unspecified) | – | inconclusive: 25.9 µM [activator, partial curve, poor fit]

Reformatted in markdown: entries from further up

| Structure (SMILES) | activity change, negative = inhibition | Potency |
| --- | --- | --- |
| COc1c(Cl)cc(Cl)cc1C(=O)Nc1ccc(NC(=O)c2cccs2)cc1 | – | inconclusive: 16.4 µM [inhibitor, partial curve, poor fit] |
| Cc1ccc(C(=O)N2CCN(c3ccc(N4CCOCC4)nn3)CC2)cc1 | – | inconclusive: 11.2 µM [activator, partial curve] |
| COc1ccccc1-c1cc(C(=O)N2CCOCC2)no1 | – | inconclusive: 0.891 µM [activator, full curve, poor fit] |
| CNc1nc(Cl)nc(NC(C)(C)C)n1 | inactive: 18% | – |
| Nc1nonc1-n1nnc(C(=O)N/N=C/c2cc(Br)cs2)c1-c1ccccc1 | – | active: 5.62 µM |
